Data as given in PubChem BioAssay AID652243 (Drosophila RNAi Screening Center, 2013)

Test: 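Fly genes required for human androgen receptor driven transcription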 (primary screen)
Cells: Drosophila S2R+ cells
Reagents: long dsRNA against Drosophila genes
Time to read-out: 72 h (48 h, then 24 h hormone)
Conditions: synthetic androgen R1881 at 10 nM for 24 h
Measured: 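Firefly light from an androgen-responsive reporter and Renilla control light per well, raw and unnormalised, for each of two replicates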
Reading the numbers: firefly reporter light: higher = more light from androgen-responsive reporter; Renilla control light: higher = more constitutive control signal (cell number, transfection)
Active means: 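Across duplicate plates, a knock-down whose log firefly/Renilla ratio shifted a set fold down or up from the GFP/LacZ control mean was a hit; the downward cut appears as both 1.5 and 3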
Calls: active = hit: reporter lowered or raised; inactive = no hit
The deposit covers about 24,000 reagents; shown is a random part of those that have a named target and a result. Of all reagents, 246 (1%) were called active. 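Plates not normalised; calls are printed but the firefly/Renilla ratio behind them is not deposited; fold cut for lowering reported inconsistently.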 The raw values are shown without normalisation. The record does not give: the amount of reagent.

| target | DRSC id | firefly reporter light, replicate 1 | firefly reporter light, replicate 2 | Renilla control light, replicate 1 | Renilla control light, replicate 2 | outcome |
| --- | --- | --- | --- | --- | --- | --- |
| vlc (GeneID 46078) | DRSC04922 | 3.57e5 | 3.74e5 | 2.40e6 | 2.40e6 | inactive |
| mav (GeneID 43804) | DRSC17149 | 3.42e5 | 3.91e5 | 3.91e6 | 2.98e6 | inactive |
| Chs2 (GeneID 40442) | DRSC11830 | 2.31e5 | 2.42e5 | 2.57e6 | 2.82e6 | inactive |
| Cpr47Ec (GeneID 36191) | DRSC07332 | 4.31e5 | 3.32e5 | 2.05e6 | 1.84e6 | inactive |
| CG2017 (GeneID 40733) | DRSC12293 | 29721 | 54046 | 5.77e5 | 5.51e5 | inactive |
| Gyc89Db (GeneID 42002) | DRSC15009 | 79307 | 66172 | 3.22e5 | 5.17e5 | inactive |
| janB (GeneID 43568) | DRSC16973 | 1.97e5 | 2.03e5 | 1.78e6 | 2.58e6 | inactive |
| AcCoAS (GeneID 40348) | DRSC11477 | 7.13e5 | 5.70e5 | 3.27e6 | 2.46e6 | inactive |
| AcCoAS (GeneID 40348) | DRSC11603 | 83036 | 80643 | 6.64e5 | 6.11e5 | inactive |
| AcCoAS (GeneID 40348) | DRSC22850 | 4.24e5 | 7.29e5 | 6.24e5 | 1.09e6 | inactive |
| AcCoAS (GeneID 40348) | DRSC25972 | 4.00e5 | 2.71e5 | 6.77e5 | 5.57e5 | inactive |
| Vajk1 (GeneID 34809) | DRSC01882 | 2.79e5 | 2.85e5 | 2.24e6 | 2.39e6 | inactive |
| Vajk1 (GeneID 34809) | DRSC26105 | 2.81e5 | 2.14e5 | 4.76e5 | 4.91e5 | inactive |
| CG6978 (GeneID 31413) | DRSC18409 | 4.72e5 | 6.90e5 | 2.99e6 | 2.62e6 | inactive |
| CG13581 (GeneID 37911) | DRSC04216 | 3.05e5 | 3.11e5 | 2.07e6 | 1.87e6 | inactive |
| CG13442 (GeneID 37349) | DRSC06402 | 1.03e5 | 1.69e5 | 1.39e6 | 1.88e6 | inactive |
| CG13442 (GeneID 37349) | DRSC25909 | 4.32e5 | 4.04e5 | 9.82e5 | 8.75e5 | inactive |
| nmdyn-D6 (GeneID 32396) | DRSC20355 | 6.08e5 | 4.87e5 | 3.21e6 | 2.92e6 | inactive |
| nmdyn-D6 (GeneID 32396) | DRSC36815 | – | – | – | – | inactive |
| CG42490 (retired record) (GeneID 8674118) | DRSC01649 | 6.82e5 | 5.97e5 | 1.59e6 | 1.79e6 | inactive |
| CG42490 (retired record) (GeneID 8674118) | DRSC28297 | 5.86e5 | 7.77e5 | 1.22e6 | 1.45e6 | inactive |
| Acsx2 (GeneID 42353) | DRSC14308 | 1.83e5 | 3.57e5 | 2.57e6 | 3.24e6 | inactive |
| CG8476 (GeneID 41624) | DRSC16426 | 55142 | 76334 | 1.19e6 | 1.76e6 | inactive |
| CG8476 (GeneID 41624) | DRSC27865 | 9.96e5 | 4.57e5 | 3.07e6 | 1.25e6 | inactive |
| Marf1 (GeneID 49895) | DRSC03747 | 2.27e5 | 2.18e5 | 1.44e6 | 1.55e6 | inactive |
| Marf1 (GeneID 49895) | DRSC03774 | 2.13e5 | 2.54e5 | 6.32e5 | 5.33e5 | inactive |
| tzn (GeneID 40299) | DRSC11755 | 52704 | 40470 | 3.94e5 | 3.93e5 | inactive |

Reprinted from the listing, 4 entries:
| target | DRSC id | firefly reporter light, replicate 1 | firefly reporter light, replicate 2 | Renilla control light, replicate 1 | Renilla control light, replicate 2 | outcome |
| --- | --- | --- | --- | --- | --- | --- |
| AcCoAS (GeneID 40348) | DRSC22850 | 4.24e5 | 7.29e5 | 6.24e5 | 1.09e6 | inactive |
| AcCoAS (GeneID 40348) | DRSC25972 | 4.00e5 | 2.71e5 | 6.77e5 | 5.57e5 | inactive |
| Vajk1 (GeneID 34809) | DRSC01882 | 2.79e5 | 2.85e5 | 2.24e6 | 2.39e6 | inactive |
| Vajk1 (GeneID 34809) | DRSC26105 | 2.81e5 | 2.14e5 | 4.76e5 | 4.91e5 | inactive |

The listing continues.
| target | DRSC id | firefly reporter light, replicate 1 | firefly reporter light, replicate 2 | Renilla control light, replicate 1 | Renilla control light, replicate 2 | outcome |
| --- | --- | --- | --- | --- | --- | --- |
| crb (GeneID 42896) | DRSC16927 | 70825 | 48526 | 4.50e5 | 4.82e5 | inactive |
| crb (GeneID 42896) | DRSC39156 | 8.03e5 | 5.13e5 | 2.12e6 | 1.54e6 | inactive |
| CG8774 (GeneID 41635) | DRSC16445 | 20608 | 52784 | 2.00e5 | 2.75e5 | inactive |
| Pgam5 (GeneID 31143) | DRSC18551 | 1.09e5 | 58806 | 7.52e5 | 5.54e5 | inactive |
| Ugt37A3 (GeneID 41574) | DRSC15937 | 1.87e5 | 2.58e5 | 2.52e6 | 2.84e6 | inactive |
| CRAT (GeneID 40787) | DRSC12523 | 53601 | 67496 | 9.19e5 | 6.75e5 | inactive |
| CRAT (GeneID 40787) | DRSC29377 | 4.58e5 | 4.62e5 | 1.00e6 | 1.00e6 | inactive |
| rho-7 (GeneID 36281) | DRSC07304 | 4.21e5 | 3.59e5 | 1.60e6 | 2.29e6 | inactive |
| Phs (GeneID 39697) | DRSC10827 | 59339 | 54987 | 5.84e5 | 2.56e5 | inactive |
| Phs (GeneID 39697) | DRSC29714 | 4.58e5 | 4.79e5 | 1.51e6 | 1.35e6 | inactive |
| CG1909 (GeneID 43800) | DRSC17150 | 69856 | 65122 | 4.39e5 | 3.75e5 | inactive |
| GstD4 (GeneID 48337) | DRSC16685 | 1.79e5 | 1.91e5 | 1.70e6 | 1.73e6 | inactive |
| GstD4 (GeneID 48337) | DRSC27765 | 2.11e5 | 1.37e5 | 4.19e5 | 6.86e5 | inactive |
| GstD4 (GeneID 48337) | DRSC38958 | 7.12e5 | 6.47e5 | 8.42e5 | 9.94e5 | inactive |
